Test results as given in article PMC5847153.
No constants are given. Whether binding was seen depends on the method and setting. In cells and extracts the contact can be indirect. A yes stands for co-enrichment or nearness to the bait. Other partners may have been found.

The chains behind the UniProt entries cited, without tags or fusion partners.
UniProt P48432: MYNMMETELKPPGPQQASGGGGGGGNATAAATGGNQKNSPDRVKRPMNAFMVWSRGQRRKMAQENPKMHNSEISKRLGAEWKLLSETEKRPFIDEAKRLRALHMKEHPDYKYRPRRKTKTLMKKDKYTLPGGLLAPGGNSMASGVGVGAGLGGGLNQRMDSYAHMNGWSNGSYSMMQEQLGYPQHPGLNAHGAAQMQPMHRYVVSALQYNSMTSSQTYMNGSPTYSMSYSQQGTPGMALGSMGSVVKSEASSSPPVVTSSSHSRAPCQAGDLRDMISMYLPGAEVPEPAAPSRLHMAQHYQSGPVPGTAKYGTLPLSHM
UniProt Q9DBR0: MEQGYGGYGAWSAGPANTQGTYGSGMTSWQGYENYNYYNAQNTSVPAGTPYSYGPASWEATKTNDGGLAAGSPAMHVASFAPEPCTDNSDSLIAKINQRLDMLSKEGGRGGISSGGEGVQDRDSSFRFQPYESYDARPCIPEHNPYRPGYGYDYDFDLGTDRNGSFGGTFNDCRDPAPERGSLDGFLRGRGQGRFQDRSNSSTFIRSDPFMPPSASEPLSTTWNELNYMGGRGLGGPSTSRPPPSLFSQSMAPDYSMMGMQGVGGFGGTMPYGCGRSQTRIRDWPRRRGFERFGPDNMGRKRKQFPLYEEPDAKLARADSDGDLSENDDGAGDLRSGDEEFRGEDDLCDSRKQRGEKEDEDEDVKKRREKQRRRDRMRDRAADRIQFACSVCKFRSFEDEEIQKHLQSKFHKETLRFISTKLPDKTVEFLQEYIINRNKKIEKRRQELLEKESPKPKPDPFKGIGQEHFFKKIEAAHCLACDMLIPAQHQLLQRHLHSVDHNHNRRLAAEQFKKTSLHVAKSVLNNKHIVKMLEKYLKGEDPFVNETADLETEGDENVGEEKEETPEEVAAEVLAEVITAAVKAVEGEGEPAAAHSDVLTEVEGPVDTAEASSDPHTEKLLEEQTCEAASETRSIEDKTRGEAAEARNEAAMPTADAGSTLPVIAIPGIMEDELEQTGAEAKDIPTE
UniProt D3YXK2: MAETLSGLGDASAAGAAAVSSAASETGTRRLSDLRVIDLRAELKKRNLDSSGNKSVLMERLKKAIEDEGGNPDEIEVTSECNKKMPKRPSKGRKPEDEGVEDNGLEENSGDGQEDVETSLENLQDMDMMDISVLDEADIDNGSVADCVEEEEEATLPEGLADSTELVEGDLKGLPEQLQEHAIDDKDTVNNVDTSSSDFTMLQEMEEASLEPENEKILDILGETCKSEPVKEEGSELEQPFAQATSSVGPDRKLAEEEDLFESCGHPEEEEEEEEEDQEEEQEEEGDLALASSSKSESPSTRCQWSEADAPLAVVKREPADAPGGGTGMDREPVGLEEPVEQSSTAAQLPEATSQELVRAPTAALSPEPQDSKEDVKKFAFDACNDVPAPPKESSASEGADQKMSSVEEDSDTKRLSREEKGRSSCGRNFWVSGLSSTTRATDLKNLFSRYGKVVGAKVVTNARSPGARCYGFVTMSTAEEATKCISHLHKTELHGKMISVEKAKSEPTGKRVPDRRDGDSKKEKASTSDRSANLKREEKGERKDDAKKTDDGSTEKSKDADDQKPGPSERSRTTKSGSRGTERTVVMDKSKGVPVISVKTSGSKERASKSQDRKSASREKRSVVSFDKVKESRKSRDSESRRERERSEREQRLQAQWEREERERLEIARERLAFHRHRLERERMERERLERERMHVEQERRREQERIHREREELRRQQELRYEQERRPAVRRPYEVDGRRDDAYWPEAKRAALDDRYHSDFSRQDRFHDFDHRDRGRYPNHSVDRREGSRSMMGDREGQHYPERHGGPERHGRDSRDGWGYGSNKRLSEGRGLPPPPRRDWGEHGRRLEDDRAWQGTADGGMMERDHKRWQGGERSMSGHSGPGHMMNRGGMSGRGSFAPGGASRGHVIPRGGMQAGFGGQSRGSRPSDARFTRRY

Target: bioSox2 (bio-TEV-Sox2), biotinylated by birA (mouse) (UniProt P48432)
Test: affinity purification with mass spectrometry; bioSox2 complexes from nuclear extracts of E18.5 lungs of bioSox2/birA mice held on streptavidin Dynabeads M-280, 4 °C, wash with 100 mM KCl and 0.02% NP-40; birA-only mice as control; MALDI-TOF MS; in triplicate

Substance | binding
Akap8 (from UniProt Q9DBR0 1-687) | binds
Scaffold attachment factor B1 (from UniProt D3YXK2 1-937) | binds
